Library screen at single concentrations

Sequences of proteins named here, by UniProt entry; tags and fusion partners are left off. Residues count along the entry.
UniProt Q4DA54, 1-478: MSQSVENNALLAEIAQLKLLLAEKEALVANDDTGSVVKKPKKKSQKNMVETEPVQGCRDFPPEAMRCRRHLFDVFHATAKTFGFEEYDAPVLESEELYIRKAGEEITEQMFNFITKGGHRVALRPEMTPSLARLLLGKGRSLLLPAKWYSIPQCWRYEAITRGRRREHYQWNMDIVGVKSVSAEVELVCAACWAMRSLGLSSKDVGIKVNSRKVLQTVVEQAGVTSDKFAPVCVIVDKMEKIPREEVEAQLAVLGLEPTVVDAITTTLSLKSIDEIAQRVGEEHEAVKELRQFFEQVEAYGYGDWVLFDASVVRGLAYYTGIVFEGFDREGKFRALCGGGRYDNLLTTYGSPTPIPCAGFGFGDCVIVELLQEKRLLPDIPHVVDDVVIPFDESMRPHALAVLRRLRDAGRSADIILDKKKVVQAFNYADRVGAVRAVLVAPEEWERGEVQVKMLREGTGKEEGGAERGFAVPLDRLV

Values are the deposited “Percent Effect”, in %. How 0% and 100% were set is not recorded. Most values in the screen are low, and negative values occur. This is an unselected part of the compounds tested.

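Enzyme assay of histidyl-tRNA synthetase; the read-out is not stated. Target: Histidine-tRNA ligase, Trypanosoma cruzi CL Brener (UniProt Q4DA54). Concentration: 30 µM. The record gives no direction; compounds that gave an IC50 in retests scored well above the rest, so higher reads as stronger inhibition. About 69,000 compounds were tested under these conditions; 0.045% (about 31) showed 50% or more at least once.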

Compound	effect
COCCN1CC(C(=O)N(C)Cc2csc(C)n2)CC1=O (stereo not shown)	5.978%
CC1CCC(NS(=O)(=O)CC(=O)NC2(C(N)=O)CCCC2)CC1 (stereo not shown)	10.89%
CS(=O)(=O)c1cncnc1C1CCCN(C(=O)NCc2ccccc2)C1 (stereo not shown)	1.515%
CCn1cc(-c2cc(-c3ccn(C)c3)nc(N)c2C#N)cc1C#N	3.867%
Cc1ncc(CN2CCCC(c3nc4ccccc4n3C(C)C)C2)s1 (stereo not shown)	4.494%
Cn1cccc1C(=O)N1CCC2(CC1)CCN2S(C)(=O)=O	9.195%
COCCn1cc(CC(=O)Nc2cc(C)n(C)n2)c2ccccc21	3.125%
CC(C)Cc1nc(C[S+]([O-])CC(=O)NCc2ccccc2)no1 (stereo not shown)	10.5%
COc1ccccc1OCC(=O)NS(=O)(=O)c1cccnc1	3.097%
O=C(N[C@@H]1CN(c2ncccn2)[C@@H]2CCCO[C@@H]21)c1cscn1	7.097%
CCC(C)Sc1nncn1-c1ccc(OC)nc1 (stereo not shown)	3.333%
COc1cc(N2C[C@@H](C)[C@](O)(C3CC3)C2)ncn1	0%
Cc1nc(C2CCCN(C(=O)c3cc(C(C)(C)C)on3)C2)no1 (stereo not shown)	1.153%
Cc1cnc(N2C[C@H]3C[C@H](C(=O)N4CCN(C)CC4)N(C)[C@H]3C2)nc1	0.6452%
O=c1n(CC2CCCCO2)nc(CC2CCNCC2)n1-c1ccccc1 (stereo not shown)	4.865%
CC(NC(=O)Cn1ccnc1)c1ccc(OCC2CC2)c(F)c1 (stereo not shown)	1.667%
O=C(c1cn(Cc2ccccc2)c2ncccc12)N1CCCCC1	7.955%
O=C(c1ccccn1)N1CCC2(COc3ncccc3S(=O)(=O)N2)C1 (stereo not shown)	2.959%
CS(=O)(=O)NCC1CCCN(C(=O)c2ccco2)C1 (stereo not shown)	5.523%
O=C(O)c1ccccc1-n1cc(CN2CCC(c3cc[nH]n3)C2)cn1 (stereo not shown)	10.34%
CCOCC1CCN(C(=O)C(c2cccc(F)c2)N(C)C)CC1 (stereo not shown)	4.721%
Cc1ccc(NC(=O)N2CCC(NC(=O)c3ccc(C)o3)CC2)cc1	-0.3774%
CCCc1n[nH]c(C2CN(C(=O)c3cc(C4CC4)on3)CCO2)n1 (stereo not shown)	-2%
CN1CCCC1CCNC(=O)c1ccccc1-n1cc(CN)cn1 (stereo not shown)	1.13%
CS(=O)(=O)N1CC[C@H]2OCC[C@@]2(C(=O)NCc2ccccn2)C1	8.466%
O=C([C@@H]1CSCN1)N1CCC2(CC1)CNCc1ccccc12	7.595%
CCOCC1CC2(CCN(C(=O)c3ccccn3)CC2)CO1 (stereo not shown)	7.104%
Cc1cc(C)n2nc(C(=O)N3CCCC4(CNC(=O)O4)C3)cc2n1 (stereo not shown)	-1.478%
CS(=O)(=O)N1CCC(Oc2cnccn2)CC1	2.174%
CC1CCN(CC(=O)N(C)CCc2noc(C3CC3)n2)C1=O (stereo not shown)	1.587%
O=C(NCC1Cn2nnc(-c3ccncc3)c2CO1)c1ccc[nH]1 (stereo not shown)	7.438%
Cc1cn[nH]c1C1CCCCN1C(=O)CCc1c(C)n[nH]c1C (stereo not shown)	4.396%
COCCNc1cc(-c2ccccc2C(N)=O)c2cc[nH]c2n1	-3.509%
CN1CC=C(c2noc(CCC(=O)N3CCCC3)n2)CC1	-8.537%
COc1ncnc(N(C)C)c1NC(=O)Cc1cc(F)ccc1F	6.878%
CCc1nc(C2CCCN(C(=O)c3ccc4[nH]nnc4c3)C2)no1 (stereo not shown)	-1.132%
CN1CCC2(CC1)CC(NC(=O)c1csnn1)c1ccccc1O2 (stereo not shown)	-2.062%
COc1cc(CNC(c2ccccc2)c2nccn2C)cc(OC)c1 (stereo not shown)	6.122%
COC(CNC(=O)c1cn(C)nn1)c1ccccc1C (stereo not shown)	-0.4878%
Cc1ncc2c(n1)CN(Cc1nc(-c3cccs3)no1)CC2	15.12%
CCOc1ccc(CNC(C)c2c(C)nn(C)c2C)cc1 (stereo not shown)	-2.128%
CN(C)C(=O)[C@@H]1CCO[C@@H]2CCN(c3ncccn3)C[C@H]21	5.473%
CCOc1ccc(CNCCCn2ccnc2)cc1Br	0.5464%
C[C@@H](CO)Nc1nccc(-c2cnc3sc(Cl)cn3c2=O)n1	13.56%
CC(C)c1nc2c(n1C)CCN(CCCc1nc3ccccc3o1)C2	6.494%
CN(C)C[C@@H]1CCC[C@@H]2CN(c3nccc(C(F)(F)F)n3)C[C@@H]21	0.9709%
CC(C)OCc1cccc(NC(=O)N(C)Cc2ncnn2C)c1	11.49%
COCC(C)(C#N)NC(=O)COc1ccccc1 (stereo not shown)	5.946%
C[C@@H]1CN(CCOCc2ccccc2)CC[C@@]1(O)C1CCC1	-8.696%
CC(=O)N1CCC(Cc2cnc(C(=O)N3CCCC3)cn2)C1 (stereo not shown)	1.498%
CCc1cnc(COc2ccc(OC3CCCCNC3=O)cc2)o1 (stereo not shown)	3.509%
Cc1nc(C)n(CC2CCCN(CC(=O)Nc3ccncc3)C2)n1 (stereo not shown)	5.882%
CN1CCCC(CCC(=O)NCCc2nnc(N)s2)C1 (stereo not shown)	3.704%
CN(CCn1cnnc1)S(=O)(=O)c1ccc(C(F)(F)F)nc1	3.365%
CCN1CCC(c2nnc(CN3CCCC3)n2C2CC2)CC1	6.522%
CCS(=O)(=O)CCSc1cccc(C#N)c1	3.077%
COc1cc(C)c(CNC(C)c2nc(C)cs2)cc1OC (stereo not shown)	7.059%
OC(COCc1cccs1)CN1CCc2c(ncn2C2CC2)C1 (stereo not shown)	9.605%
CCN1C(=O)C(C)(C)c2cc(NC(=O)c3ccn(CC)n3)ccc21	9.938%
O=C(Cc1ccco1)N1C[C@H]2CCC[C@@]2(COc2cccnc2)C1	12.37%
CN(Cc1ccc(-n2ccnc2)cc1)CC1CCCN1c1cccnn1 (stereo not shown)	7.289%
Cc1cc(N2CCN(C(=O)[C@@H]3C[C@@H]4C=C[C@H]3C4)CC2)cc(C)n1	3.627%
O=C(COc1ccc2c(c1)CCC2)N1CCOCC1c1ncon1 (stereo not shown)	2.256%
Cc1nc(CN(C)S(=O)(=O)c2ccccc2Br)no1	1.818%
O=C(c1ccc2c(c1)OCO2)N1CCCC(n2ccnc2)C1 (stereo not shown)	-1.69%
CC(=O)N1CCC1c1nc(-c2ccc(C)s2)no1 (stereo not shown)	-1.695%
O=C(Nc1ccccc1)N1C[C@H]2CC[C@@H]1CN(Cc1ccccc1)C2	1.571%
CC(C)COC(=O)N1CC(=O)N(CCCc2ccccc2)CC(O)C1 (stereo not shown)	8.989%
CC1CCN(S(=O)(=O)NCc2ccccc2Cn2cccn2)CC1	6.017%
CCC(C)NC(=O)c1ccccc1-n1cnnn1 (stereo not shown)	3.734%
O=C(c1nc2c(s1)CCCN2CC1CC1)N1CCOCC1	36.78%
CCOC(C)c1nc(CN2CCN(c3nccc(C)n3)CC2)cs1 (stereo not shown)	2.5%
Cc1nonc1CN1CC[C@@](O)(C2CCOCC2)[C@H](C)C1	2.469%
Cn1ncc2c(NCC3CCCN3c3cccnn3)ncnc21 (stereo not shown)	3.944%
O=C1NCC2(CCCN(Cc3ccncc3)C2)Oc2ccccc21 (stereo not shown)	3.191%
CC(C)CCN1C(=O)CC(N(C)Cc2nc3ccccc3c(=O)[nH]2)C1=O (stereo not shown)	3.158%
Cn1cccc(NC(=O)COc2ccc(Cl)cc2)c1=O	7.843%
CCCOc1cc(F)ccc1NC(=O)NCc1noc(C)n1	6.466%
O=C(CCc1cccnc1)Nc1ccc(OCC2CCOCC2)cc1	1.299%
CCc1ccccc1Nc1noc2c1CN(C(=O)CCOC)CC2	2.239%

Some entries from above, unchanged:

| Compound | effect |
|---|---|
| `C[C@@H](CO)Nc1nccc(-c2cnc3sc(Cl)cn3c2=O)n1` | 13.56% |
| `Cc1ccc(NC(=O)N2CCC(NC(=O)c3ccc(C)o3)CC2)cc1` | -0.3774% |
| `COCCn1cc(CC(=O)Nc2cc(C)n(C)n2)c2ccccc21` | 3.125% |
| `CN(CCn1cnnc1)S(=O)(=O)c1ccc(C(F)(F)F)nc1` | 3.365% |
| `CC1CCN(CC(=O)N(C)CCc2noc(C3CC3)n2)C1=O` (stereo not shown) | 1.587% |
| `CCOc1ccc(CNCCCn2ccnc2)cc1Br` | 0.5464% |

From ChEMBL document CHEMBL3988442, “University of Dundee, Small-Polar-MMV Screening Library” (2021).